The results in this text go back to the supplement of paper PMC4862054.

Holding throughout (assay): normalised response (% of control), CellTox Green; higher = less cell death (100 = DMSO, 0 = benzethonium chloride kill control)
Settings in all cases: incubation time: 72 h

One assay concerns HCC1143. As for the experimental part:
(§1)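 DSRT, 72 h incubation, CellTox Green / CellTiter-Glo readout. Signal is normalised to DMSO and benzethonium chloride controls. Value is the normalised response at the lowest tested concentration.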

Another assay concerns CAL-148. As for the experimental part:
as §1

In a further assay the test system is HCC1599. The protocol: as §1
For the next assay, the system named is MCF-10A. As for the experimental part:
as §1

Another assay concerns DU-4475. As for the experimental part:
as §1

Another assay concerns HCC1937. As for the experimental part: as §1
The subject of the next assay is BT-474. As for the experimental part:
as §1

For a further assay, the system named is Hs578T. The protocol: as §1
A further assay relates to HDQ-P1. The protocol:
as §1

For a further assay, the system named is MFM-223. The protocol:
as §1

The test system of the next assay is MDA-MB-468. As for the experimental part: as §1
Another assay relates to MDA-MB-453. As for the experimental part:
as §1

The subject of a further assay is MDA-MB-231. The protocol:
as §1

Another assay has as its system MDA-MB-436. As for the experimental part:
as §1

Another assay deals with CAL-85-1. The protocol: as §1
The subject of another assay is CAL-120. As for the experimental part: as §1
For the next assay, the system named is CAL-51. The protocol: as §1
The next assay concerns BT-549. The protocol: as §1

Small differences around the control level are noise.

`Cc1ccc(NC(=O)c2ccc(CN3CCN(C)CC3)cc2)cc1Nc1nccc(-c2cccnc2)n1` [Imatinib] (1 nM): the normalised response with HCC1143 came to 121%; in the assay with CAL-148, 106%; in the assay on HCC1599, 104%; in the assay on MCF-10A, 76.7%; in the assay on DU-4475, 101%; in the assay on HCC1937 it was 98.4%. The normalised response stood at 80.5% with BT-474; 98.6% in the assay with Hs578T; 85% with HDQ-P1; 101% in the assay on MFM-223; 85% in the assay with MDA-MB-468; 105% in the assay with MDA-MB-453. Moreover, the normalised response was 60.2% with MDA-MB-231; 101% in the assay with MDA-MB-436; 98.7% in the assay on CAL-85-1; 102% with CAL-120; 85.9% with CAL-51; 93.8% in the assay on BT-549.
`NC(=O)c1ccc(I)c([N+](=O)[O-])c1` [Iniparib] (1 nM): the normalised response with HCC1143 was found to be 87.7%; with CAL-148, 98.9%; in the assay on HCC1599 it was 90.3%; in the assay on MCF-10A it was 94.6%; with DU-4475 it was 91.8%; with HCC1937 it was 99.1%. The normalised response in the assay with BT-474 turned out to be 97%; in the assay on Hs578T it was 75.4%; with HDQ-P1 it was 90.1%; in the assay with MFM-223, 99%; in the assay with MDA-MB-468, 75.2%; in the assay with MDA-MB-453, 93.9%. Also, the normalised response amounted to 93.8% with MDA-MB-231; 75.8% with MDA-MB-436; 99.9% in the assay with CAL-85-1; 99.1% in the assay with CAL-120; 107% in the assay on CAL-51; 111% with BT-549.
For `N#Cc1ccc(C(c2ccc(C#N)cc2)n2cncn2)cc1` [Letrozole] (1 nM), the normalised response with HCC1143 was found to be 106%; in the assay on CAL-148 it was 98.8%; in the assay on HCC1599 it was 102%; with MCF-10A it was 93%; in the assay with DU-4475, 103%; with HCC1937, 69.9%. Moreover, the normalised response was found to be 98.6% in the assay with BT-474; 108% in the assay with Hs578T; 102% in the assay on HDQ-P1; 100% with MFM-223; 98.5% with MDA-MB-468; 101% in the assay with MDA-MB-453. The normalised response stood at 103% with MDA-MB-231; 101% in the assay on MDA-MB-436; 95.2% in the assay on CAL-85-1; 101% in the assay on CAL-120; 119% in the assay with CAL-51; 92.9% in the assay on BT-549.
For the compound `c1ccc([C@H]2CN3CCSC3=N2)cc1` [Levamisole] (1 nM), the normalised response in the assay with HCC1143 was determined as 55.7%; in the assay on CAL-148, 102%; in the assay with HCC1599, 96.8%; in the assay with MCF-10A, 109%; with DU-4475, 104%; in the assay with HCC1937, 82.8%. The normalised response was determined as 75.8% in the assay with BT-474; 104% in the assay with Hs578T; 99.2% in the assay on HDQ-P1; 101% in the assay on MFM-223; 119% with MDA-MB-468; 107% in the assay with MDA-MB-453. For the same compound, the normalised response worked out at 103% in the assay on MDA-MB-231; 89.2% with MDA-MB-436; 102% in the assay with CAL-85-1; 101% in the assay with CAL-120; 96.6% with CAL-51; 98.5% in the assay on BT-549.
Turning to `O=C(c1cc(Cc2n[nH]c(=O)c3ccccc23)ccc1F)N1CCN(C(=O)C2CC2)CC1` [Olaparib] (1 nM), the normalised response is 111% with HCC1143; 91.2% in the assay on CAL-148; 97.2% with HCC1599; 57% in the assay with MCF-10A; 99.1% in the assay with DU-4475; 100% with HCC1937. The normalised response was 95% in the assay with BT-474; 105% in the assay on Hs578T; 98.7% with HDQ-P1; 104% in the assay on MFM-223; 114% in the assay with MDA-MB-468; 106% in the assay with MDA-MB-453. For the same compound, the normalised response in the assay with MDA-MB-231 came out at 101%; in the assay on MDA-MB-436 it was 86.3%; in the assay on CAL-85-1 it was 107%; in the assay on CAL-120, 98.8%; in the assay with CAL-51 it was 107%; in the assay with BT-549, 97.6%.
As to `CO[C@H](C(=O)[C@@H](O)[C@@H](C)O)[C@@H]1Cc2cc3cc(O[C@H]4C[C@@H](O[C@@H]5C[C@@H](O)[C@H](O)[C@@H](C)O5)[C@H](O)[C@@H](C)O4)c(C)c(O)c3c(O)c2C(=O)[C@H]1O[C@H]1C[C@@H](O[C@@H]2C[C@@H](O)[C@@H](O[C@@H]3C[C@](C)(O)[C@H](O)[C@@H](C)O3)[C@@H](C)O2)[C@H](O)[C@@H](C)O1` [Plicamycin] (1 nM), the normalised response in the assay on HCC1143 was determined as 110%; in the assay with CAL-148, 98%; in the assay with HCC1599, 99.2%; with MCF-10A, 103%; in the assay with DU-4475, 103%; in the assay on HCC1937, 57.5%. Also, the normalised response in the assay with BT-474 was 102%; with Hs578T it was 106%; with HDQ-P1, 99.1%; in the assay with MFM-223, 94.6%; in the assay on MDA-MB-468 it was 85.3%; with MDA-MB-453, 109%. For the same compound, the normalised response with MDA-MB-231 was found to be 108%; with MDA-MB-436 it was 54.7%; in the assay on CAL-85-1 it was 98.6%; with CAL-120, 105%; in the assay with CAL-51, 109%; with BT-549 it was 97.5%.
Turning to `CNCc1ccc(-c2[nH]c3cc(F)cc4c3c2CCNC4=O)cc1` [Rucaparib] (1 nM), the normalised response in the assay with HCC1143 worked out at 121%; in the assay on CAL-148, 92.4%; in the assay with HCC1599, 95.5%; in the assay with MCF-10A, 81.2%; in the assay on DU-4475 it was 95.3%; in the assay with HCC1937, 57.7%. In addition, the normalised response stood at 97.9% in the assay on BT-474; 99.6% in the assay with Hs578T; 94.2% in the assay on HDQ-P1; 52.9% with MFM-223; 90.2% with MDA-MB-468; 99.9% in the assay with MDA-MB-453. In addition, the normalised response with MDA-MB-231 is 88.1%; in the assay with MDA-MB-436, 71.2%; with CAL-85-1, 101%; in the assay on CAL-120, 98.7%; in the assay with CAL-51, 102%; in the assay with BT-549, 104%.
